Results are given in words; binding and its absence hold for the method and conditions named. Binding seen in cells or lysates may run through a third protein. Some binding calls cover weakened binding; strength is not graded here. For some assays here: Tags and fused reporters may be left off the sequences shown.
Legend:
[1] = target: T1, full-length Wnt7a-HA (Wnt7a-FL) (human) (UniProt O00755); assay: co-IP; lysate of HEK293T cells overexpressing Wnt7a-HA; immunoprecipitation with COPB2 or HA antibody on Dynabeads Protein G; 50 mM tris pH 7.5, 150 mM NaCl, 0.5% Triton X-100; immunoblot
T1 sequence: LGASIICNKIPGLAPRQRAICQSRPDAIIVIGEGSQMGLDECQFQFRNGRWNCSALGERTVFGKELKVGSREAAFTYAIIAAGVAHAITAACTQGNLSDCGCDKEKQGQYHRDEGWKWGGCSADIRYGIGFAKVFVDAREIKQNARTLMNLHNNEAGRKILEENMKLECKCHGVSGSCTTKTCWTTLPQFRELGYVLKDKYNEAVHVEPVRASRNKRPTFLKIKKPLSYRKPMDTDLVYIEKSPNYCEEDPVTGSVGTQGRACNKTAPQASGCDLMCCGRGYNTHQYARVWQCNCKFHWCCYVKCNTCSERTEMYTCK

[2] = target: T2, Wnt7a_ΔEBP*GSGS (human) (UniProt O00755); assay: proximity ligation; Duolink PLA in fixed HEK293T cells transfected with Wnt7a-FL, Wnt7a_ΔEBP*GSGS or Wnt7a_ΔSP; control without Wnt7a antibody
T2 sequence: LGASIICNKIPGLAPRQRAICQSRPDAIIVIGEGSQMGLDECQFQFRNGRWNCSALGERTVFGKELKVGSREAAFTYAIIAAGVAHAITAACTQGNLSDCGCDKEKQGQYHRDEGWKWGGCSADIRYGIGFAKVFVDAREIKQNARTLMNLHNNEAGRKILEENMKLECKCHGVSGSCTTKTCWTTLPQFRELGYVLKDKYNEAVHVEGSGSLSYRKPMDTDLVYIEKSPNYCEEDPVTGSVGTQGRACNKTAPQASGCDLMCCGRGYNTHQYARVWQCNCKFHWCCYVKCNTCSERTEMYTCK

[3] = target: T1, full-length Wnt7a-HA (Wnt7a-FL) (human); assay: as above
[4] = target: T3, Wnt7a_ΔSP (human) (UniProt O00755); assay: as above
T3 sequence: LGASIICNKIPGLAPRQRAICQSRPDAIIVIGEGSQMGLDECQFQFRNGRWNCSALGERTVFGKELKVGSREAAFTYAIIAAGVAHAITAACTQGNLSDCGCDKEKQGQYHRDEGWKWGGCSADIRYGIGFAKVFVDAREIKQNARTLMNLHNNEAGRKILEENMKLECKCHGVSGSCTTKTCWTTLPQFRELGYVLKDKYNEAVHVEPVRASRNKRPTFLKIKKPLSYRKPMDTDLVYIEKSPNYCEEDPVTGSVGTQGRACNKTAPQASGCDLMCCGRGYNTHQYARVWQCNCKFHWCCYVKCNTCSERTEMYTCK

[5] = target: T4, endogenous Wnt7a (human (endogenous in RPTEC-hTERT1)) (UniProt O00755); assay: proximity ligation; Duolink PLA in fixed RPTEC-hTERT1 cells, endogenous proteins; control without Wnt7a antibody
T4 sequence: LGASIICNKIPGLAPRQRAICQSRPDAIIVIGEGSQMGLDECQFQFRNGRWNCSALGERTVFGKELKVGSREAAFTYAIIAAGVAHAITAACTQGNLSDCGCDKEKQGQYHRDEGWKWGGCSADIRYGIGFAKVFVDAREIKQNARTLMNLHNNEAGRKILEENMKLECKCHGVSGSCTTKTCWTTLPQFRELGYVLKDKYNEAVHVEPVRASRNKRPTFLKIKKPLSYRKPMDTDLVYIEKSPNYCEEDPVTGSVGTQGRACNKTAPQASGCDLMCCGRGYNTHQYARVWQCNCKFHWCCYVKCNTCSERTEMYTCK

B1: COPA (coatomer protein), human (protein, UniProt P53621 1-1224)
chain: MLTKFETKSARVKGLSFHPKRPWILTSLHNGVIQLWDYRMCTLIDKFDEHDGPVRGIDFHKQQPLFVSGGDDYKIKVWNYKLRRCLFTLLGHLDYIRTTFFHHEYPWILSASDDQTIRVWNWQSRTCVCVLTGHNHYVMCAQFHPTEDLVVSASLDQTVRVWDISGLRKKNLSPGAVESDVRGITGVDLFGTTDAVVKHVLEGHDRGVNWAAFHPTMPLIVSGADDRQVKIWRMNESKAWEVDTCRGHYNNVSCAVFHPRQELILSNSEDKSIRVWDMSKRTGVQTFRRDHDRFWVLAAHPNLNLFAAGHDGGMIVFKLERERPAYAVHGNMLHYVKDRFLRQLDFNSSKDVAVMQLRSGSKFPVFNMSYNPAENAVLLCTRASNLENSTYDLYTIPKDADSQNPDAPEGKRSSGLTAVWVARNRFAVLDRMHSLLIKNLKNEITKKVQVPNCDEIFYAGTGNLLLRDADSITLFDVQQKRTLASVKISKVKYVIWSADMSHVALLAKHAIVICNRKLDALCNIHENIRVKSGAWDESGVFIYTTSNHIKYAVTTGDHGIIRTLDLPIYVTRVKGNNVYCLDRECRPRVLTIDPTEFKFKLALINRKYDEVLHMVRNAKLVGQSIIAYLQKKGYPEVALHFVKDEKTRFSLALECGNIEIALEAAKALDDKNCWEKLGEVALLQGNHQIVEMCYQRTKNFDKLSFLYLITGNLEKLRKMMKIAEIRKDMSGHYQNALYLGDVSERVRILKNCGQKSLAYLTAATHGLDEEAESLKETFDPEKETIPDIDPNAKLLQPPAPIMPLDTNWPLLTVSKGFFEGTIASKGKGGALAADIDIDTVGTEGWGEDAELQLDEDGFVEATEGLGDDALGKGQEEGGGWDVEEDLELPPELDISPGAAGGAEDGFFVPPTKGTSPTQIWCNNSQLPVDHILAGSFETAMRLLHDQVGVIQFGPYKQLFLQTYARGRTTYQALPCLPSMYGYPNRNWKDAGLKNGVPAVGLKLNDLIQRLQLCYQLTTVGKFEEAVEKFRSILLSVPLLVVDNKQEIAEAQQLITICREYIVGLSVETERKKLPKETLEQQKRICEMAAYFTHSNLQPVHMILVLRTALNLFFKLKNFKTAATFARRLLELGPKPEVAQQTRKILSACEKNPTDAYQLNYDMHNPFDICAASYRPIYRGKPVEKCPLSGACYSPEFKGQICRVTTVTEIGKDVIGLRISPLQFR
What does the source list for B1?
binding [1]: binds; binding [2]: no binding; binding [3]: binds; binding [4]: binds; binding [5]: binds

Source: publication PMC11633749, “Identification of the Wnt signal peptide that directs secretion on extracellular vesicles” (Science Advances, 2024)
